# Data published in PubChem BioAssay AID624297 (National Center for Advancing Translational Sciences (NCATS), 2012).
# The whole screen tested about 340,000 compounds, of which about 6,200 (1.8%) were called active. This list was built around the results that the source calls inconclusive (neither active nor inactive); the mix of calls is not that of the screen. Calls follow the shape of the dose curve; as a rule, active = well fitted activation curve with a large enough effect; inconclusive = small, poorly fitted or top-dose-only effect; inactive = no such curve, though single readings can be large or run the other way. Potencies beside an inconclusive call are fits to weak or partial responses and may not hold up.
# Test: A quantitative high throughput screen for small molecules that induce DNA re-replication in SW480 colon adenocarcinoma cells. Also: nearly all actives have a fitted effect of over 55% in size. As to re-replication activation: % of control where 0% means no effect.
# Settings: Hoechst DNA content imaging, 48 h; re-replication activation: at 46.1 µM (top of the series) unless noted
# Procedure, shortened: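 Per well, 250 cells were exposed to pinned compound for 48 hr. Nuclear DNA was visualised with Hoechst (40 min, 37 C) and total object intensity recorded by fluorescence scanning.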
# Potency is read from the fitted curve at half-maximal effect.
Compound,Potency,re-replication activation
O=C(c1cc([N+](=O)[O-])cc([N+](=O)[O-])c1)N1CCOCC1,"inconclusive: 32.6 µM [activator, single point]",
O=C(COc1ccc(Cl)cc1Cl)N/N=C/CCc1ccccc1,,inactive: -1.6%
CCOc1cccc(C2NC(=S)NC(C)=C2C(=O)Nc2ccccc2)c1 (stereo not drawn),"inconclusive: 29.1 µM [activator, single point]",
COCCN(C(=O)CSc1nnc2cc(C)c3ccccc3n12)c1c(N)n(Cc2ccccc2)c(=O)[nH]c1=O,"inconclusive: 32.6 µM [activator, partial curve, poor fit]",
COc1ccc(C(C)NC(=O)c2ccncc2)cc1OC (stereo not drawn),"inconclusive: 29.1 µM [activator, single point]",
CCc1ccc(N(CC(=O)N2CCN(Cc3ccccc3)CC2)S(C)(=O)=O)cc1,,inconclusive: 27.4% [activator]
CCCN(CCC)C(=O)CC(c1ccccc1)c1cc(Br)ccc1O (stereo not drawn),,inactive: 21.3%
Cc1ccc(S(=O)(=O)N2CCCCC2)cc1NC(=O)Cc1cccs1,,inactive: -6.05%
O=C(CN1CCN(CCN2C(=O)c3cccc4cccc(c34)C2=O)CC1)c1ccc(F)cc1,"inconclusive: 16.4 µM [activator, single point]",
CCCOc1ccc(-c2nc(N3CCN(C)CC3)c3ccccc3n2)cc1,"inconclusive: 18.4 µM [activator, single point]",
O=C(NC1CCCCCC1)C(=S)N1CCOCC1,,inactive: -6.35%
COCCNC(=O)CCCC(=O)NCCOC,,inactive: -6.21%
O=C(CS(=O)(=O)c1ccccc1)Nc1nnc(Cc2ccccc2)s1,,inactive: -3.47%
COc1ccc([N+](=O)[O-])c(S(=O)(=O)c2ccc(Cl)cc2)n1,active: 2.91 µM,
Nc1nc(COC(=O)C2CC(=O)N(CCc3ccccc3)C2)nc(Nc2ccccc2)n1 (stereo not drawn),,inactive: -16.8%
Cc1cc(C)n(-c2nc(NCC(C)O)c3c4c(sc3n2)COC(C)(C)C4)n1 (stereo not drawn),"inconclusive: 23.1 µM [activator, single point]",
C=CCn1c(SCC(=O)NC2(C#N)CCCCC2)nnc1-c1ccncc1,"inconclusive: 0.146 µM [activator, full curve, poor fit]",
Nc1ccc2c(O)cc(S(=O)(=O)O)cc2c1,"inconclusive: 29.1 µM [activator, single point]",
CC(=O)NC1(C(F)(F)F)C(=O)Nc2c1c(=O)[nH]c(=O)n2CCc1ccccc1 (stereo not drawn),"inconclusive: 6.51 µM [activator, single point]",
CCCC(O)(CCC)C(=O)NN(C(=O)CCl)c1ccccc1,"inconclusive: 29.1 µM [activator, single point]",
CN(C(=O)CN1C(=O)S/C(=C\c2ccccc2Cl)C1=O)C1CCS(=O)(=O)C1 (stereo not drawn),"inconclusive: 29.1 µM [activator, single point]",
CCCCn1c(N)c(N(CC(C)C)C(=O)c2ccc(Br)s2)c(=O)[nH]c1=O,,inactive: 1.24%
COc1ccc(NS(=O)(=O)c2cc([N+](=O)[O-])ccc2NN=Cc2ccccc2OCC(=O)O)cc1,"inconclusive: 0.651 µM [activator, partial curve, poor fit]",
Cc1ccc(CNC(=O)CCC(=O)c2cccs2)cc1,,inactive: -10.4%
O=C(c1cc(COc2ccc(F)cc2F)on1)N1CC2C[C@@H]3CC1C[C@H](C2)C3,"inconclusive: 25.9 µM [activator, single point]",

# Two records picked at random from the list so far, as already listed:
Compound,Potency,re-replication activation
O=C(c1cc(COc2ccc(F)cc2F)on1)N1CC2C[C@@H]3CC1C[C@H](C2)C3,"inconclusive: 25.9 µM [activator, single point]",
CCc1ccc(N(CC(=O)N2CCN(Cc3ccccc3)CC2)S(C)(=O)=O)cc1,,inconclusive: 27.4% [activator]

# Further results follow:

Compound,Potency,re-replication activation
CCCCN1C(=O)c2ccc(C(=O)NC3(C)CCS(=O)(=O)C3)cc2C1=O (stereo not drawn),,inactive: -2.04%
CC(C)CN(C(=O)COC(=O)c1cncc(Br)c1)c1c(N)n(Cc2ccccc2)c(=O)[nH]c1=O,,inconclusive: 32.4% [activator]
COc1ccc(Br)cc1/C=N/n1c(-c2ccccc2)n[nH]c1=S,"inconclusive: 0.164 µM [activator, full curve, poor fit]",
COc1ccc(C/C(C)=N/NC(=S)Nc2ccccc2)cc1,,inactive: -7.78%
COc1ccc(-c2cc(C(F)(F)F)n3ncc(C(=O)N4CCCCC4c4cccnc4)c3n2)cc1 (stereo not drawn),"inconclusive: 9.2 µM [activator, partial curve, poor fit]",
CC1(C)CC2CC(C)(CN2S(=O)(=O)c2ccc(F)cc2F)C1 (stereo not drawn),,inactive: -0.479%
O=[N+]([O-])c1cc(Cl)c(O)c2ncccc12,active: 10.3 µM,
O=C(/C=C/c1ccc(Br)o1)Nc1nccs1,"inconclusive: 18.4 µM [activator, partial curve, poor fit]",
COc1cccc(N2CCN(C(=O)c3[nH]c(C)c(C(C)=O)c3C)CC2)c1,active: 7.08 µM,
CCCCN(CC)c1nc(-c2ccncc2)nc2ccccc12,"inconclusive: 29.1 µM [activator, single point]",
COc1ccc(C(=O)NC(=S)Nc2nc(-c3ccc(OC)c(Br)c3)cs2)cc1Br,,inactive: -3.9%
CC(C)(C)NC(=O)/C=C/c1cccs1,"inconclusive: 5.8 µM [activator, partial curve]",
Cc1ccnc(NCc2ccc(Cl)cc2)c1,"inconclusive: 20.6 µM [activator, single point]",
CC#CC[N+](C)(C)CCCCCCCC,,inactive: -0.154%
Cc1nn(C)cc1CNCc1ccc(OCC(O)CN(C)Cc2ccccc2)cc1 (stereo not drawn),"inconclusive: 32.6 µM [activator, partial curve, poor fit]",
CCCS(=O)(=O)c1nc(S(=O)(=O)c2ccc(C)cc2)c(N2CCC(C(N)=O)CC2)s1,"inconclusive: 0.58 µM [activator, full curve]",
c1ccc2[nH]c(CN3CCOCC3)nc2c1,"inconclusive: 1.3 µM [activator, full curve, poor fit]",
CC(C)N(Cc1nccn1C)C(=O)c1cc(COc2ccc(F)cc2Cl)on1,,inactive: 1.54%
COc1ccc(OC)c(CN2CCN(C(=O)c3ccco3)CC2)c1,,inactive: -11.2%
COn1c(-n2nc(C)cc2C)nc2ccccc2c1=O,,inactive: -0.967%
CCOc1ccc(NC(=O)COc2ccc(S(=O)(=O)N3CCCC3)cc2)cc1,"inconclusive: 0.0058 µM [activator, full curve, poor fit]",
Cc1ccc(NC(=O)Nc2nnc(CSCCOc3ccc(Cl)cc3)s2)cc1,,inactive: -2.65%
O=C(NC12CC3CC(CC(C3)C1)C2)c1cc([N+](=O)[O-])ccc1N1CCOCC1,,inactive: -3.91%
Cc1nc2c(C)cccc2cc1C(=O)N/N=C/c1ccc(O)cc1,,inactive: 14.6%
COc1nc(N/N=C/c2ccc(-c3ccccc3[N+](=O)[O-])o2)nc(N2CCOCC2)n1,"inconclusive: 0.206 µM [activator, full curve, poor fit]",

# Among those listed so far, these have a carbonyl joined to an NH by a bond outside any ring.
Compound,Potency,re-replication activation
O=C(COc1ccc(Cl)cc1Cl)N/N=C/CCc1ccccc1,,inactive: -1.6%
CCOc1cccc(C2NC(=S)NC(C)=C2C(=O)Nc2ccccc2)c1 (stereo not drawn),"inconclusive: 29.1 µM [activator, single point]",
COc1ccc(C(C)NC(=O)c2ccncc2)cc1OC (stereo not drawn),"inconclusive: 29.1 µM [activator, single point]",
Cc1ccc(S(=O)(=O)N2CCCCC2)cc1NC(=O)Cc1cccs1,,inactive: -6.05%
O=C(NC1CCCCCC1)C(=S)N1CCOCC1,,inactive: -6.35%
COCCNC(=O)CCCC(=O)NCCOC,,inactive: -6.21%
O=C(CS(=O)(=O)c1ccccc1)Nc1nnc(Cc2ccccc2)s1,,inactive: -3.47%
C=CCn1c(SCC(=O)NC2(C#N)CCCCC2)nnc1-c1ccncc1,"inconclusive: 0.146 µM [activator, full curve, poor fit]",
CC(=O)NC1(C(F)(F)F)C(=O)Nc2c1c(=O)[nH]c(=O)n2CCc1ccccc1 (stereo not drawn),"inconclusive: 6.51 µM [activator, single point]",
CCCC(O)(CCC)C(=O)NN(C(=O)CCl)c1ccccc1,"inconclusive: 29.1 µM [activator, single point]",
Cc1ccc(CNC(=O)CCC(=O)c2cccs2)cc1,,inactive: -10.4%
CCCCN1C(=O)c2ccc(C(=O)NC3(C)CCS(=O)(=O)C3)cc2C1=O (stereo not drawn),,inactive: -2.04%
O=C(/C=C/c1ccc(Br)o1)Nc1nccs1,"inconclusive: 18.4 µM [activator, partial curve, poor fit]",
COc1ccc(C(=O)NC(=S)Nc2nc(-c3ccc(OC)c(Br)c3)cs2)cc1Br,,inactive: -3.9%
CC(C)(C)NC(=O)/C=C/c1cccs1,"inconclusive: 5.8 µM [activator, partial curve]",
CCCS(=O)(=O)c1nc(S(=O)(=O)c2ccc(C)cc2)c(N2CCC(C(N)=O)CC2)s1,"inconclusive: 0.58 µM [activator, full curve]",
CCOc1ccc(NC(=O)COc2ccc(S(=O)(=O)N3CCCC3)cc2)cc1,"inconclusive: 0.0058 µM [activator, full curve, poor fit]",
Cc1ccc(NC(=O)Nc2nnc(CSCCOc3ccc(Cl)cc3)s2)cc1,,inactive: -2.65%
O=C(NC12CC3CC(CC(C3)C1)C2)c1cc([N+](=O)[O-])ccc1N1CCOCC1,,inactive: -3.91%
Cc1nc2c(C)cccc2cc1C(=O)N/N=C/c1ccc(O)cc1,,inactive: 14.6%

# (next part)

Compound,Potency,re-replication activation
COc1ccc(CCC(C)N2CCC(CO)(Cc3ccccc3)CC2)cc1 (stereo not drawn),,inactive: 1.89%
COC(=O)c1cc(NC(=O)c2cc(-c3ccc(C(F)(F)F)cc3)oc2C(F)(F)F)ccc1N1CCOCC1,active: 5.8 µM,
Cc1nc(N2CCCCC2)sc1C(=O)c1ccc(SCCO)c([N+](=O)[O-])c1,,inactive: 29%
COc1ccc(CCNC(=O)COC(=O)c2ccccn2)cc1,"inconclusive: 0.82 µM [activator, full curve, poor fit]",
COCCCNC(=O)CC(NS(=O)(=O)c1ccc(OC)cc1)c1ccc(OC)cc1 (stereo not drawn),,inactive: -3.5%
O=C(NNc1ccc(C(F)(F)F)cc1[N+](=O)[O-])c1ccc(NS(=O)(=O)c2ccc(F)cc2)cc1,,inactive: -49.3%
CCOC(=O)C1=C(COC(=O)/C=C/c2ccc(OC)cc2)NC(=O)NC1C (stereo not drawn),"inconclusive: 16.4 µM [activator, single point]",
c1cncc(-c2nc(NCC3COc4ccccc4O3)c3ccccc3n2)c1 (stereo not drawn),"inconclusive: 20.6 µM [activator, single point]",
O=C(CCc1ccccc1)Nc1cc2c(cc1C(=O)O)OCCCO2,,inactive: -2.81%
Cc1ccc(/C=C2/NC(=O)N(Cc3ccccc3)C2=O)o1,"inconclusive: 25.9 µM [activator, single point]",
CCS(=O)(=O)N1CCC(NC(=O)C(Cc2ccc(OC)c(OC)c2)NC(C)=O)CC1 (stereo not drawn),,inactive: -7.51%
COc1ccc2nc(NC(=O)c3ccc(Br)s3)sc2c1,"inconclusive: 18.4 µM [activator, partial curve, poor fit]",
Cc1cccc(OCc2nnc(SCC(=O)Nc3cccc(C(=O)N4CCOCC4)c3)n2C)c1,"inconclusive: 0.13 µM [activator, partial curve, poor fit]",
Cc1cc(C(=O)CSc2nnnn2-c2ccccc2)c(C)n1-c1ccc2c(c1)OCO2,"inconclusive: 20.6 µM [activator, single point]",
COc1cc2c(cc1OC)CN(C(=O)c1ccco1)CC2,"inconclusive: 1.16 µM [activator, single point]",
O=C(NC1CCCCC1)C(c1cccs1)N(C(=O)C(F)(F)F)c1ccccc1 (stereo not drawn),"inconclusive: 29.1 µM [activator, single point]",
NC(=O)C1CN(S(=O)(=O)c2ccc(Cl)cc2F)c2ccccc2O1 (stereo not drawn),"inconclusive: 29.1 µM [activator, single point]",
COc1ccccc1/C=C/C(=O)Nc1ccc2c(c1)OCCO2,active: 16.4 µM,
CCC(C)c1ccc(NC(=O)C2CC3CCC2C3)cc1 (stereo not drawn),"inconclusive: 14.6 µM [activator, partial curve, poor fit]",
O=[N+]([O-])c1cc(F)c2cccnc2c1O,"inconclusive: 18.4 µM [activator, single point]",
CCCCN(CC)S(=O)(=O)c1ccc(C(=O)Nc2nnc(CSC)o2)cc1,"inconclusive: 18.4 µM [activator, single point]",
O=C(c1cc(-c2ccc3c(c2)OCO3)on1)N1CCN(c2ccccc2)CC1,,inactive: 0.487%
CN1CC2=Cc3ccccc3OC23Oc2ccccc2C=C3C1,"inconclusive: 29.1 µM [activator, single point]",
